Assay results taken from patent US20240010754A1.
No constants are given. Whether binding was seen depends on the method and setting. Some binding calls cover weakened binding; strength is not graded here.

Chains of the proteins cited; added tags and fusions are not shown. Residues count along the entry.
UniProt P25942, residues 21-277: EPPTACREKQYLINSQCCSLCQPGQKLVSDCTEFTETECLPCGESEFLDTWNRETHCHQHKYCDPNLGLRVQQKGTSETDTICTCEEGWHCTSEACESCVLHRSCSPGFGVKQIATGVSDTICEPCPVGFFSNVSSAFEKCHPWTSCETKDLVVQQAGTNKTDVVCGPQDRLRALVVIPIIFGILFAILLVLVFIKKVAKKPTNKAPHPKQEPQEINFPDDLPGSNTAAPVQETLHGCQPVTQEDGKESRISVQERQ

Biological target: human CD40 (human) (UniProt P25942)
Assay: FACS binding to HEK293/CD40 cells

binding: binds
B1: parent CD40 monoclonal antibody 9E5-25 (antibody, V domains shown)
VH: QVQLVQSGAEVKKPGASVKVSCKASGYILTTYWITWVRQAPGQGLEWMGDIHPGSGSTKYNEKFKSRVTLTVDTSISTAYMELSRLRSEDTAVYYCARRDYWGQGTTVTVSS
VL: DIVMTQSPLSLPVTPGEPASISCRSSQNIVNSQGNTYLEWYLQKPGQSPQLLIYKVTNRFSGVPDRFSGSGSGTDFTLKISRVEAEDVGVYYCFQASLVPWTFGGGTKVEIK
